Measurements reported in PubChem BioAssay AID504774 (Drosophila RNAi Screening Center, 2011).

- Test: 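Genes required for cells to withstand methyl methanesulphonate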 (primary screen)
- System: Drosophila Kc167 cells
- Knock-down reagent: long dsRNA against Drosophila genes, about 0.25 µg dsRNA per well
- Duration: about 6 days: 3 days knock-down, then 3 days with or without MMS
- Challenge: methyl methanesulphonate 0.004% (w/v) for 3 days after knock-down
- Measured: 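ATP-dependent luminescence as a measure of live cells in MMS-exposed wells, quantile normalised within each plate, with replicate values also given as a mean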
- Direction: mean viability with MMS and viability with MMS: higher = more surviving cells after MMS
In all, the deposit lists about 23,000 reagents; this is a random part of those with a known target gene and a result. 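Values are quantile-normalised luminescence on an arbitrary scale; higher means more cells surviving MMS.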 Names joined by + are all predicted targets of the reagent. Further read-outs or replicates are left out here.

no.	predicted target	DRSC id	mean viability with MMS	viability with MMS, replicate 1
1	Nrg (Neuroglian)	DRSC17573	3.53e6	3.97e6
2	Nrg (Neuroglian)	DRSC18688	3.65e6	4.41e6
3	XNP	DRSC15594	3.38e6	3.89e6
4	shv (shriveled)	DRSC00640	3.60e6	4.08e6
5	shv (shriveled)	DRSC22122	3.51e6	3.92e6
6	dpr2 (defective proboscis extension response 2)	DRSC02370	3.74e6	4.11e6
7	dpr2 (defective proboscis extension response 2)	DRSC02371	3.69e6	4.05e6
8	Tnpo-SR (Transportin-Serine/Arginine rich)	DRSC00546	3.27e6	3.48e6
9	rgr (regular)	DRSC06487	3.60e6	4.03e6
10	rgr (regular)	DRSC07229	3.61e6	4.09e6
11	Tcs6 + PIG-P	DRSC13742	3.49e6	3.91e6
12	Tcs6 + PIG-P	DRSC14893	3.49e6	3.97e6
13	C901	DRSC19351	3.67e6	4.10e6
14	Caf1-55 (Chromatin assembly factor 1, p55 subunit)	DRSC16596	3.39e6	3.83e6
15	CG11231 (retired record)	DRSC17207	3.62e6	4.18e6

Part of the list above, reduced to “viability with MMS, replicate 1”:
dpr2 (defective proboscis extension response 2) [DRSC02370]: 4.11e6
dpr2 (defective proboscis extension response 2) [DRSC02371]: 4.05e6
Tnpo-SR (Transportin-Serine/Arginine rich) [DRSC00546]: 3.48e6

Next reagents:
no.	predicted target	DRSC id	mean viability with MMS	viability with MMS, replicate 1
16	CG33474	DRSC05218	3.60e6	3.99e6
17	CG17343	DRSC02606	3.78e6	4.28e6
18	CG17343	DRSC22807	3.41e6	3.94e6
19	CG3511	DRSC04382	3.47e6	3.82e6
20	RpS15Ab + RpS15Aa	DRSC06129	2.69e6	3.56e6
21	RpS15Ab + RpS15Aa	DRSC19831	2.92e6	3.64e6
22	lncRNA:iab4 (long non-coding RNA:iab4)	DRSC22331	3.49e6	3.96e6
23	ths (thisbe)	DRSC06153	2.63e6	3.36e6
24	ths (thisbe)	DRSC23123	3.43e6	3.91e6
25	Rs1	DRSC05945	3.46e6	3.87e6
26	Muc68D (Mucin 68D)	DRSC10569	3.59e6	4.08e6
27	CG7881	DRSC04898	3.56e6	4.05e6
28	CG5800	DRSC19962	3.44e6	3.89e6
